# Assay results: the supplement of paper PMC5949888
# Most values lie at the floor of the assay. Slopes are relative: functional sequences can read slightly below zero.
# Tested on: Saccharomyces cerevisiae PS128 hsf1 delta, HSF1(1-493) fusion
# Assay: growth estimate (transactivation domain function in HSF1 fusion, heat-shock survival) (a.u. (slope of normalised read count over time)); higher = stronger growth at 37°C, i.e. more transactivation activity
# Conditions: library: random library
row,Substance,growth estimate
1,FAYGWSWALGLGLADRGHGL,< -0.25
2,TKISG,< -0.25
3,SGENYKSEIDKPTTFVDLCR,< -0.25
4,MCQYSSMKLGHNGLRN,< -0.25
5,VKRFTEGPSISRRSTEPQTA,< -0.25
6,ECYVQ,< -0.25
7,GHVIAWFGRIRQSHIWRSRL,< -0.25
8,LRVMSVATV,< -0.25
9,TPIEMKGEVSSRFGVSRLRA,< -0.25
10,RAFCAQGHGPPGWRLCCNLV,< -0.25
11,GRP,< -0.25
12,SWNRMFQTATNTVSTIGATL,< -0.25
13,GTLKRPVGS,< -0.25
14,RIVEAPRTH,< -0.25
15,VCLTKTSESYPRV,< -0.25
16,LIGRWEKWGHGNTVKLITTY,< -0.25
17,NEHFKTFTRGLRMHKEVDPI,< -0.25
18,SLQPSRRNPLCRAPRVTTRA,< -0.25
19,TGRCNNGGTEVRREKQQRPG,< -0.25
20,PVMCVLWLLSLG,< -0.25
21,VALCFGCCLGLRVDQGTVMI,< -0.25
22,RASTREQAAWPWCSSCSAAL,< -0.25
23,RSPEISRGDREKPCPG,< -0.25
24,RQRVGDNLP,< -0.25
25,CRPCMDKEVDCLSS,< -0.25

# Fetched one by one from the list above, 3 records:
row,Substance,growth estimate
22,RASTREQAAWPWCSSCSAAL,< -0.25
12,SWNRMFQTATNTVSTIGATL,< -0.25
24,RQRVGDNLP,< -0.25

# As entered above:
# Under growth estimate, LRVMSVATV has the entry < -0.25
# Under growth estimate, CRPCMDKEVDCLSS has the entry < -0.25

# The list continues:

row,Substance,growth estimate
1,PLISARRMDCRFCNQSANP,< -0.25
2,LTEQKQYRDVHSTGLKCKAG,< -0.25
3,GREGV,< -0.25
4,SGAGRTPISTVG,< -0.25
5,PDVRLENIAFFVTPTSHYHV,-0.113
6,MLDGARAHATNVSNWGSARV,< -0.25
7,HEALLIQSIVYSRHHCNSDR,< -0.25
8,MNTCSTGPPLVFSPAESVVK,< -0.25
9,PCVSVLLFPIVLELLWTNPH,< -0.25
10,PDPPDRMQHAGEVSWAITLT,< -0.25
11,SYTDNKSWSLSSHREYLDCN,-0.248
12,RISRVTL,< -0.25
13,SRMPFQYK,< -0.25
14,RRLPLIRKAE,< -0.25
15,TGCVIGIITWSWATPEFDTV,< -0.253
16,GRPAT,< -0.25
17,RLRILSYM,< -0.25
18,RPGQRPNQSKTLLDHRC,< -0.25
19,SRENGIVALWKIQHLIQYRQ,< -0.25
20,TGNYGCWYFHCVAATISTRS,< -0.25
21,IPCKSAVLWYRDRRASGDHA,< -0.25
22,IYRSRSSDSICVSQRLFRRY,< -0.25
23,AIVDRLR,< -0.25
24,VRPAIILRFRNLQHFSSTAG,< -0.25
25,EIPGSEADDWEGQGKSLAGN,< -0.25

row,Substance,growth estimate
1,DHPSVERAMEPLLPVSNGEA,< -0.25
2,TIVPYAFARLPRPHVRLGEF,< -0.25
3,VWVSESVD,< -0.25
4,RPYSGHRLCP,< -0.25
5,SLRSLGGQGDTVSYGG,< -0.25
6,AVKR,< -0.25
7,RGKRERRT,< -0.25
8,TSPERDLPTTGERSVQLVWR,< -0.25
9,DQPLKFFIRDVRARAGYGRE,< -0.25
10,FFTTVLGRPVVLP,< -0.25
11,NWGYSGGSCALASREFQTMS,< -0.25
12,SPPGSLEFQPCASRYRGGGP,< -0.25
13,GTAHISARGGLIRIRFQWGG,< -0.25
14,EWQGLSLQACDFLFDNARPS,2.79
15,SCISDLVWHSVITVCLRLTR,< -0.25
16,QMMVSRPRGRN,< -0.25
17,TFNSGKIAWIYVFSVSPRVR,< -0.25
18,AAPIIGIQGAPIVDASSLNS,< -0.25
19,NVALTWHLGFILAARGIHYG,< -0.25
20,NCARAGRDHMKR,< -0.25
21,EGRFSIHA,< -0.25
22,DTFSVSHAGELWSIEIPIRC,< -0.25
23,YCRTASWWDTDRD,< -0.25
24,LNWDGSMRTSWCRTHRTVAK,< -0.25
25,QRHGECADGTN,< -0.25

row,Substance,growth estimate
1,ALM,< -0.25
2,SEATFPQRIKCRTLFTAVRS,< -0.25
3,TGSYFLSGSKGDEHIMARVQ,-0.241
4,GTTSCVGDR,< -0.25
5,ALYR,< -0.25
6,ILR,< -0.25
7,AHTPVSIYWQSKTVSSYCR,< -0.25
8,PVSHESLGSGCHGWDSNAPP,< -0.25
9,GNVRHNTSISSRLILFCQFL,-0.129
10,MARTRRPRNLVGRGDAGLGT,< -0.25
11,TRNALT,-0.246
12,RHSLSLKASRRLETAYSRGL,< -0.25
13,RLLGVTAFVEVRFIKAI,< -0.25
14,DRPTGPLISGERGKAVGPCP,< -0.25
15,LGE,< -0.25
16,TCARSIR,< -0.25
17,SRLYSFTTELLLKIGRKDKS,< -0.25
18,KFGHKGGLTSVGNRAVARRR,< -0.25
19,CSAFFLG,< -0.25
20,RPTEGRHRGSARFGELLLDS,< -0.25
21,RCDSAPPIPVWFLSGRIRSM,< -0.25
22,GVGLAVCGYRVIETIAALGT,< -0.25
